Results are given in words; binding and its absence hold for the method and conditions named. In cells and extracts the contact can be indirect. Some entries that bind do so weakly or less than the wild type.

Protein sequences, listed by entry. Tags and fused reporters are not part of them. Residues count along the entry.
UniProt Q02763, residues 23-1124: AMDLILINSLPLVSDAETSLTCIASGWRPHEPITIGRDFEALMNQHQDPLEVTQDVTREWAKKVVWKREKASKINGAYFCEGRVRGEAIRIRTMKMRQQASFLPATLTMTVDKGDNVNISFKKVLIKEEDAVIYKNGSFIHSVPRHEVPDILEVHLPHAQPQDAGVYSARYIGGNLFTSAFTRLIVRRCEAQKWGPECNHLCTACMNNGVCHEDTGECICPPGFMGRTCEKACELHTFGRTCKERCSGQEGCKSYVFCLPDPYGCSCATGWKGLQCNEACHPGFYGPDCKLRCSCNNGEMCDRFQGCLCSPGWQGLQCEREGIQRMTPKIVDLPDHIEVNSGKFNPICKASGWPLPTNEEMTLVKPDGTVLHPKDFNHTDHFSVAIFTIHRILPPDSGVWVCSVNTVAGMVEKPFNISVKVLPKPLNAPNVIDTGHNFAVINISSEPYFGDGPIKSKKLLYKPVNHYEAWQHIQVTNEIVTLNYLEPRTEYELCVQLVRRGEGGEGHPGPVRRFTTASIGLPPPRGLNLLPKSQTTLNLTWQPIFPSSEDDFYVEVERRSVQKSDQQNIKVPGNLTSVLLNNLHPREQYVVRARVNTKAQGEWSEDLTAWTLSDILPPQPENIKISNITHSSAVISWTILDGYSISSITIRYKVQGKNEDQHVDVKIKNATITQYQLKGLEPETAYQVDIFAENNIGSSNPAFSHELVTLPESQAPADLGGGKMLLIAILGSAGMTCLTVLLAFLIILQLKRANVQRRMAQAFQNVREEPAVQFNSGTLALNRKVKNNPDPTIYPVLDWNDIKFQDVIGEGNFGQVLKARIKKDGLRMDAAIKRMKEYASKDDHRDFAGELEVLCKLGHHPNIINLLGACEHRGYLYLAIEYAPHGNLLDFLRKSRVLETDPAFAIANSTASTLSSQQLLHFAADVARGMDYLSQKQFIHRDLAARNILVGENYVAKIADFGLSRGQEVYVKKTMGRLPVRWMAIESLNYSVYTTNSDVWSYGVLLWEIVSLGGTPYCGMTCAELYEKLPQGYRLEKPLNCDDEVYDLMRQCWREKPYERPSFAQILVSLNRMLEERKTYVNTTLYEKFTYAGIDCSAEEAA
UniProt O15123, residues 19-496: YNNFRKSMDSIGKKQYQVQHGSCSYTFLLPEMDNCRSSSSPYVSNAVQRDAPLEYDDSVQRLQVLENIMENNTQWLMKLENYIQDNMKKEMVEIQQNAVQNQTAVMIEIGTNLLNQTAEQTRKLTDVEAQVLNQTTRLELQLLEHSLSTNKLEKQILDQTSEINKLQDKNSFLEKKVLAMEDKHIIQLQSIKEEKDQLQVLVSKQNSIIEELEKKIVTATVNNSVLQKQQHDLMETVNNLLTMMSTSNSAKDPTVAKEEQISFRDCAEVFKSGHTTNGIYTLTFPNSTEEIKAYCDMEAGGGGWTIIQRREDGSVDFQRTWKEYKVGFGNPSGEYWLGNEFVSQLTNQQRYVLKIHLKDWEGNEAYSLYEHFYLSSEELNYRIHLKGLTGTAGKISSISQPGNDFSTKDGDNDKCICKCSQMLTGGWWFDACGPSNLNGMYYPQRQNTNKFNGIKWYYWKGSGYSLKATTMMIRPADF

This assay has as its target Tie2 receptor (full length receptor construct) (UniProt Q02763). In words: co-immunoprecipitation from co-transfected 293 cells: anti-Tie2 IP, anti-gD immunoblot. On the technique in general: A western blot detects proteins with antibodies after separation by electrophoresis.

In the case of “epitope (gD)-tagged angiopoietin 2 (from UniProt O15123 19-496) (ligand)”, the binding entry was “binds”.

For the origin of these results see US20030215451A1.
